Assay results published in article PMC3519738.
Results are given in words; binding and its absence hold for the method and conditions named. Binding seen in cells or lysates may run through a third protein. Some binding calls cover weakened binding; strength is not graded here. Each block holds one substance with its values, some of them ahead of it.

Chains of the proteins cited; added tags and fusions are not shown. Residues count along the entry.
UniProt P21462: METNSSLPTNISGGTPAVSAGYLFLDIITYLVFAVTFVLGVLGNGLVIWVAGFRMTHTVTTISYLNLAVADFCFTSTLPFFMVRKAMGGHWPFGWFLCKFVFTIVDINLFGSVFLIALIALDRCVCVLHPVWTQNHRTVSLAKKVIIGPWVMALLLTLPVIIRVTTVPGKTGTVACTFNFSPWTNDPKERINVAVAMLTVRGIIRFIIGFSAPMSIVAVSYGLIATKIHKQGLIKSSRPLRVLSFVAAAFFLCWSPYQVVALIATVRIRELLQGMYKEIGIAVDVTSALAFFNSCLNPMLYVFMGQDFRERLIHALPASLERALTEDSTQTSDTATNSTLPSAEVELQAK
UniProt P25090: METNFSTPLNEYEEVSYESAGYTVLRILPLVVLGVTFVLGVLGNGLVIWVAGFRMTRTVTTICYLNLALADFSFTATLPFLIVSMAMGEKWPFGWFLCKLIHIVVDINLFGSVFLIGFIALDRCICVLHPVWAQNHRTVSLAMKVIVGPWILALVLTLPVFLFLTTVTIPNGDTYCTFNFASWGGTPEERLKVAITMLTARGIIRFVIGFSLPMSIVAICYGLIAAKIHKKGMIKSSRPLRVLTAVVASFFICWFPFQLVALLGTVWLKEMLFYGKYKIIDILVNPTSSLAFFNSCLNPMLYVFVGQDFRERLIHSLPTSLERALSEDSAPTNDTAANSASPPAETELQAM
UniProt Q63495, residues 23-402: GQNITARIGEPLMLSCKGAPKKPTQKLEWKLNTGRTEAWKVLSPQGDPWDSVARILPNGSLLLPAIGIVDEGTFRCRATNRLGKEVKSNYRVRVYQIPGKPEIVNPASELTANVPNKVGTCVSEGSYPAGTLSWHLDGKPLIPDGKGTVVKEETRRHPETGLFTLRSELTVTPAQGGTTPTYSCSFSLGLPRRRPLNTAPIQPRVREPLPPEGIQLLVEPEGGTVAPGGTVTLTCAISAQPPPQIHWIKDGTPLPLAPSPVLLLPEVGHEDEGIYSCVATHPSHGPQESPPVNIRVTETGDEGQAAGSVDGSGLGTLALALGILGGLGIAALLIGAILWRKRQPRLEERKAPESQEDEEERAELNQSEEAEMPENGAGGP
UniProt D4A7Q2: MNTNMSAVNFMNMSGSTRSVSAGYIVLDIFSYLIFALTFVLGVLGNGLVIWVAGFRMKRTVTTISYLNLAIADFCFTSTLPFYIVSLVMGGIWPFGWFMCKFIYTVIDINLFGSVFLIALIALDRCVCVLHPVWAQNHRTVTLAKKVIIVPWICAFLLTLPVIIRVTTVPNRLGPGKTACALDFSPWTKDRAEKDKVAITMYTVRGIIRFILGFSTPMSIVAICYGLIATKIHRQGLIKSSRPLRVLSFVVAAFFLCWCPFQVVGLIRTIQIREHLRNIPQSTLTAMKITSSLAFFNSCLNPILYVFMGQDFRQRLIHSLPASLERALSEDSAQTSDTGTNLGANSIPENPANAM
UniProt Q15109, residues 23-404: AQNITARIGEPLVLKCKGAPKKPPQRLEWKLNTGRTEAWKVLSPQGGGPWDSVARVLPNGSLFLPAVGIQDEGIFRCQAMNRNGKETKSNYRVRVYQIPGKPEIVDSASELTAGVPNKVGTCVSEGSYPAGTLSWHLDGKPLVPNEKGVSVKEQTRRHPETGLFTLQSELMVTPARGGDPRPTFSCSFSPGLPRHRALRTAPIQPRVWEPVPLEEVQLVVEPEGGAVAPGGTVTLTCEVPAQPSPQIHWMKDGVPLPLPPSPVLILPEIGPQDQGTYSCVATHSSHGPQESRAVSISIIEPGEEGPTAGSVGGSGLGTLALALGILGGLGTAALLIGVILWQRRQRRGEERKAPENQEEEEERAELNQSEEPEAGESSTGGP
UniProt A0A8I6AM80: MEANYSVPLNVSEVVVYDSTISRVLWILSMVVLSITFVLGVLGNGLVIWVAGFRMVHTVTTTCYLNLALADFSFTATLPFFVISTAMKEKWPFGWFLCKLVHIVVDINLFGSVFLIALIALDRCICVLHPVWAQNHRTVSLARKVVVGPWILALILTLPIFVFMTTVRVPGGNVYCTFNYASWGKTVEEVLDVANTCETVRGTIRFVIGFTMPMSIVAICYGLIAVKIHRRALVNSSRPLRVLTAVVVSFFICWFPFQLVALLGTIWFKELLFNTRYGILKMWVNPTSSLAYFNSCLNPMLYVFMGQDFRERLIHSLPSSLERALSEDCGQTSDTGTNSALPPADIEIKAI

Legend:
[1] = molecular target: human formyl peptide receptor 1 (hFPR1) (human) (UniProt P21462); experiment: co-IP; membrane proteins of HEK293 cells stably co-expressing hFPR1 or hFPRL1 with hRAGE or ΔRAGE, in dodecylmaltoside detergent buffer; precipitated with anti-human FPR1 or FPRL1 on protein G agarose overnight at 4°C; blotted for FPR1, FPRL1, RAGE
[2] = molecular target: human formyl-peptide-receptor-like-1 (hFPRL1) (human) (UniProt P25090); experiment: as above
[3] = molecular target: rat receptor for advanced glycation end products (RAGE) (rat (endogenous in primary astrocytes and microglia)) (UniProt Q63495); experiment: co-IP; RAGE precipitated from lysate of primary rat astrocytes or microglia; FPR1 and FPRL1 detected in the precipitates
[4] = molecular target: rat formyl peptide receptor 1 (FPR1) (rat (endogenous in primary astrocytes and microglia)) (UniProt D4A7Q2); experiment: co-IP; membrane proteins of primary rat astrocytes or microglia in dodecylmaltoside detergent buffer; precipitated with anti-FPR1 or anti-FPRL1 on protein G agarose overnight at 4°C; blotted for FPR1, FPRL1, RAGE
[5] = molecular target: rat formyl-peptide-receptor-like-1 (FPRL1) (rat (endogenous in primary astrocytes and microglia)); experiment: as above

binding [1]: binds
binding [2]: binds
Substance: human receptor for advanced glycation end products (hRAGE) (from UniProt Q15109 23-404)

binding [3]: binds
Substance: rat formyl peptide receptor 1 (FPR1) (from UniProt D4A7Q2 1-355)

binding [3]: binds
Substance: rat formyl-peptide-receptor-like-1 (FPRL1) (from UniProt A0A8I6AM80 1-351)

binding [4]: binds
binding [5]: binds
Substance: rat receptor for advanced glycation end products (RAGE) (from UniProt Q63495 23-402)
